Not every detail of the peptide structures is certain; ends, links or a residue may be inferred. Peptide text beside a SMILES is read from it. * marks the point of attachment. X2 = O=C(/C=C/c1ccccc1)*
Test system: COL1 in HFF-1 dermal fibroblasts
Assay: Collagen-1 ELISA in HFF-1 dermal fibroblasts (x11A)
Assay type: cell-based
Settings: peptide 2 uM, 72 hour; control (buffer) = 100
Experimental: Immune modulation functions of immodulator peptides have potential untility in the field of cosmetics. HFF-1 cell line was obtained from American Type Culture Collection (ATCC). Cells were grown in a T-75 flask in DMEM Medium containing 10% fetal bovine serum and penicillin-streptomycin at 37° C. in a humidified, 5% CO2 incubator. Cells ([…], 2,000 cells/well) were plated in a 96-well plate and incubated overnight at 37° C. in a humidified, 5% CO2 incubator. Next day, […] of compounds were added (quadruplicate wells). After 72 hour incubation with the compound, supernatants were collected for Collagen-1 ELISA assay and cell viability was measured in a luminometer after the addition of […] CellTiterGlo reagent (Promega Inc, Madison, WI) as recommended by the manufacturer.
Collagen stimulating activity of immodulator peptides in HFF-1 dermal fibroblasts. Peptides were added to cells at 2 uM. COL1 immunoreactivity was measured in the supernatants of cultured cells by ELISA using a rabbit monoclonal anti-COL1 primary antibody (Abcam, Cambridge, MA). Control (buffer) value of immunoreactivity was set to 100.

Question: Which “COL1 immunoreactivity in supernatant” value does the source give for N=C(N)NCCC[C@H](NC(=O)CNC(=O)[C@H](CCCCN)NC(=O)[C@H](CO)NC(=O)[C@@H]1CCCN1C(=O)[C@H](CCCNC(=N)N)NC(=O)[C@H](CS)NC(=O)[C@H](CCC(N)=O)NC(=O)[C@H](CCCCN)NC(=O)[C@H](CCCCN)NC(=O)[C@H](CCCCN)NC(=O)[C@H](Cc1ccc(O)cc1)NC(=O)[C@H](Cc1ccccc1)NC(=O)CNC(=O)[C@H](CCCCN)NC(=O)[C@H](CCCCN)NC(=O)/C=C/c1ccccc1)C(=O)N[C@@H](CCCCN)C(=O)N[C@@H](CCCNC(=N)N)C(=O)NCC(=O)N[C@@H](Cc1ccccc1)C(=O)N[C@@H](CS)C(=O)N[C@@H](Cc1c[nH]c2ccccc12)C(=O)O [IM3cin] (X2-KKGFYKKKQCRPSKGRKRGFCW-OH) here?
Answer: 106
